The values below come from paper PMC7540926.

The chains behind the UniProt entries cited, without tags or fusion partners.
UniProt Q8C3P7: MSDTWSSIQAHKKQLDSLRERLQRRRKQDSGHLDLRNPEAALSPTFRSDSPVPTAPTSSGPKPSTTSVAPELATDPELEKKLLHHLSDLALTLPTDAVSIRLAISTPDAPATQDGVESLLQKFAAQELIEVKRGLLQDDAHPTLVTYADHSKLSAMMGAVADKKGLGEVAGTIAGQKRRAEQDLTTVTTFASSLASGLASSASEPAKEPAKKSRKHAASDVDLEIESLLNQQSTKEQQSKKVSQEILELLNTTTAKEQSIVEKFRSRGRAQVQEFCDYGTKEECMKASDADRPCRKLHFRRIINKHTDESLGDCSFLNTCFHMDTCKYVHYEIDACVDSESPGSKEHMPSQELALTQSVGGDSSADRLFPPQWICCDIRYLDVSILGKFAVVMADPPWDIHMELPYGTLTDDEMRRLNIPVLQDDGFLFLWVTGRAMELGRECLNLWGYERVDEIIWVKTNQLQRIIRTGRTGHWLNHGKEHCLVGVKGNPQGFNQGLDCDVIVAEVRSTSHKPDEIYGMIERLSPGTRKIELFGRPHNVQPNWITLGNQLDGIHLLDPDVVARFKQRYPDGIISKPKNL

Results are given in words; binding and its absence hold for the method and conditions named. Binding seen in cells or lysates may run through a third protein. Some results given as binding are weak or reduced against the parent protein; the word gives no strength.

This test addresses myc-Mettl3 (mouse) (UniProt Q8C3P7). Nature of the test: co-IP; HEK293T cells co-transfected for 48 h and lysed in 1% Triton X-100, 1 mM EDTA, 1 mM EGTA, 50 mM NaF, 5 mM Na-pyrophosphate in PBS; anti-myc antibodies on protein A-Sepharose overnight at 4°C; Western blots for myc, V5 and METTL14. A general note: In western blotting, separated proteins are transferred to a membrane and probed.

B1: endogenous METTL14 (protein, UniProt Q9HCE5 1-456)
chain: MDSRLQEIRERQKLRRQLLAQQLGAESADSIGAVLNSKDEQREIAETRETCRASYDTSAPNAKRKYLDEGETDEDKMEEYKDELEMQQDEENLPYEEEIYKDSSTFLKGTQSLNPHNDYCQHFVDTGHRPQNFIRDVGLADRFEEYPKLRELIRLKDELIAKSNTPPMYLQADIEAFDIRELTPKFDVILLEPPLEEYYRETGITANEKCWTWDDIMKLEIDEIAAPRSFIFLWCGSGEGLDLGRVCLRKWGYRRCEDICWIKTNKNNPGKTKTLDPKAVFQRTKEHCLMGIKGTVKRSTDGDFIHANVDIDLIITEEPEIGNIEKPVEIFHIIEHFCLGRRRLHLFGRDSTIRPGWLTVGPTLTNSNYNAETYASYFSAPNSYLTGCTEEIERLRPKSPPPKSKSDRGGGAPRGGGRGGTSAGRGRERNRSNFRGERGGFRGGRGGAHRGGFPPR
As to B1, the binding entry is on record as “binds”.
